The target in the test is human C5a receptor with C-terminal mGFP, on HEK cells (human) (UniProt P21730). The test can be described thus: flow cytometry on cells.

The chains behind the UniProt entries cited, without tags or fusion partners.
UniProt P21730: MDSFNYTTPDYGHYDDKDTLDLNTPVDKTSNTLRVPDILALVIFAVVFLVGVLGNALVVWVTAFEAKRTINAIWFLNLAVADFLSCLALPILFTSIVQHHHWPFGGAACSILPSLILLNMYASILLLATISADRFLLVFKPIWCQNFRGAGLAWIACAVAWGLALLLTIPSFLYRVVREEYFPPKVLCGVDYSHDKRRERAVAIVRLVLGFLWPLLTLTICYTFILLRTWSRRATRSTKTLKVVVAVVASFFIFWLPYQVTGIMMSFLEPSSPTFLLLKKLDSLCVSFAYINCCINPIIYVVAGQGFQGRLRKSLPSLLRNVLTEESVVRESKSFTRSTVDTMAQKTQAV

Results are given in words; binding and its absence hold for the method and conditions named. Some results given as binding are weak or reduced against the parent protein; the word gives no strength.

These results are taken from paper doi:10.1101/127514.

For the substance “wild type LukS (from UniProt O80066 29-312)”, the binding result is listed as “binds”.
